{
  "sequences": {"note": "The chains behind the UniProt entries cited, without tags or fusion partners.", "UniProt Q06755": "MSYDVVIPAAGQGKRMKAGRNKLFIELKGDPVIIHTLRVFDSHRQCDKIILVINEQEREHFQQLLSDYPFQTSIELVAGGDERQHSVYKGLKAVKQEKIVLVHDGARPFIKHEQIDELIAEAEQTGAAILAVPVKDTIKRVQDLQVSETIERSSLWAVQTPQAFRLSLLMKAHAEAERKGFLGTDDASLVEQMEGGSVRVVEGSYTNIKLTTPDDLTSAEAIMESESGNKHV"},
  "source": "paper PMC5821942",
  "about": "“Crystal structure of IspF from Bacillus subtilis and absence of protein complex assembly amongst IspD/IspE/IspF enzymes in the MEP pathway” (Bioscience Reports, 2018)",
  "key": {"[1]": {"molecular_target": "T1, GST fusion of CDPME kinase (IspE) from Bacillus subtilis (Bacillus subtilis 168) (UniProt P37550)", "T1 sequence": "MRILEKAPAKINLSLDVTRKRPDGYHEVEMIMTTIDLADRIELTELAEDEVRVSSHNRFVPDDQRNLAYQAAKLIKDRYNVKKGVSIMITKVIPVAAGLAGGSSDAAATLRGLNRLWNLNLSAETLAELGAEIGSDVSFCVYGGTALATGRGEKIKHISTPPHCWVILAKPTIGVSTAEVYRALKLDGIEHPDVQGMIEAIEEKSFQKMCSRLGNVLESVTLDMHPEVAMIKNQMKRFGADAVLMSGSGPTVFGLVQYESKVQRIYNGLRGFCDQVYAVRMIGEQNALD", "experiment": "native gel or EMSA; native gel shift of mixtures of two or three proteins, 2.5 μg/μl each, 10% glycerol, 25 mM Tris/HCl pH 8.0, 100 mM NaCl, 12 μl; 1 mM MgCl2, 1 mM MEP, 1 mM CTP if IspD present; 30°C 30 min; 8% native PAGE, 1x TBE, 4°C; both purified"}, "[2]": {"molecular_target": "T1, GST fusion of CDPME kinase (IspE) from Bacillus subtilis (Bacillus subtilis 168)", "experiment": "SEC; Superdex75 10/300 GL; single B. subtilis proteins and triple mixture (0.2 mg each, 250 μl); 100 mM NaCl, 25 mM Tris/HCl pH 8.0; 1 mM MgCl2, 1 mM MEP, 1 mM CTP if IspD present; 30°C 30 min; both purified"}},
  "note": "No constants are given. Whether binding was seen depends on the method and setting. Sequences can lack the tags named with a protein.",
  "data": [
    {"substance": "2-C-Methyl-D-erythritol-4-phosphate cytidyltransferase (IspD) from Bacillus subtilis (from UniProt Q06755 1-232) (enzyme)", "values": [
      {"measurement": "binding", "setting": "[1]", "value": "no binding (tested: 2.5 μg/μl each)"},
      {"measurement": "binding", "setting": "[2]", "value": "no binding (tested: 0.2 mg each in 250 μl)"}
    ]}
  ]
}
